Three molecules from patent US20030224400A1 can be followed below.

Sequences of proteins named here, by UniProt entry; tags and fusion partners are left off. A change or cut given only in a name is not applied to a line headed by its entry.
UniProt Q9NS75: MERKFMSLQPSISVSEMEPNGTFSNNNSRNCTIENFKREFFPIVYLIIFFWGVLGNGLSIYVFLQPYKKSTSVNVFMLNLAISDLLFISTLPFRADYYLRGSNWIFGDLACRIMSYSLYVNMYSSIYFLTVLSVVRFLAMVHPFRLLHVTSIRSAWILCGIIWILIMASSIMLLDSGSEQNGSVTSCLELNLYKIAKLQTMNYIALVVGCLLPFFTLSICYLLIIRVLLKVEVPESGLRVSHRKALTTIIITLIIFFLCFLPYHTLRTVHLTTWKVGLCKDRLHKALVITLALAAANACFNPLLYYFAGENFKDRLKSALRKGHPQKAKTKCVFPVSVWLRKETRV

Results are given in words; binding and its absence hold for the method and conditions named. Some binding calls cover weakened binding; strength is not graded here.

The target of the test is HGPRBMY11 (human G-protein coupled receptor BMY11) (human) (UniProt Q9NS75). Nature of the test: phage display panning on CHO-K1 cells transfected with HGPRBMY11, after preadsorption on alphaVbeta3 integrin and parental cells; binding phage eluted and sequenced.
Take PLDWGLIPYLHFGSV: the binding result was “binds”.

Regarding LFASSDWSSFPVLVF, the binding entry is listed as “binds”.

For the molecule THGFGHRVWSVPLRS, the binding entry was “binds”.
